According to publication PMC10543426, “The PALB2 DNA-binding domain is an intrinsically disordered recombinase” (Research Square, 2023):

Target: T1, Δ40-DBD (Homo sapiens) (UniProt Q86YC2)
T1 sequence (looked up, limits assumed): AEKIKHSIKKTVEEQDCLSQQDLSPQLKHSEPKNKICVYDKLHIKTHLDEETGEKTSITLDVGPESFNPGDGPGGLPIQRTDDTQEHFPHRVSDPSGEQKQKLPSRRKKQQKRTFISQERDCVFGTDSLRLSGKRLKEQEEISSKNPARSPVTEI
Assay: smFRET
Conditions: free DNA remains at 10 uM protein, AUC of DNA complexes: 0.1 M NaCl, 20 C, recombinant protein, label: 5' Cy3, Cy5 at position 50, single-stranded DNA

## TTTTTTTTTTTTTTTTTTTTTTTTTTTTTTTTTTTTTTTTTTTTTTTTTT [Cy3-dT50-Cy5]
  binding result: binds more weakly

Weaker means in comparison with the reference protein, sequence or condition of that experiment. Tags and fusion partners may be left off the protein sequences shown.
